According to the supplement of paper PMC6411743:
± gives the standard deviation of the averaged measurements. The entries are a selection whose mix differs from that of the whole data set.

Amino acid sequences for entries named in this document (tags omitted). A change or cut given only in a name is not applied to a line headed by its entry.
UniProt Q8ND04: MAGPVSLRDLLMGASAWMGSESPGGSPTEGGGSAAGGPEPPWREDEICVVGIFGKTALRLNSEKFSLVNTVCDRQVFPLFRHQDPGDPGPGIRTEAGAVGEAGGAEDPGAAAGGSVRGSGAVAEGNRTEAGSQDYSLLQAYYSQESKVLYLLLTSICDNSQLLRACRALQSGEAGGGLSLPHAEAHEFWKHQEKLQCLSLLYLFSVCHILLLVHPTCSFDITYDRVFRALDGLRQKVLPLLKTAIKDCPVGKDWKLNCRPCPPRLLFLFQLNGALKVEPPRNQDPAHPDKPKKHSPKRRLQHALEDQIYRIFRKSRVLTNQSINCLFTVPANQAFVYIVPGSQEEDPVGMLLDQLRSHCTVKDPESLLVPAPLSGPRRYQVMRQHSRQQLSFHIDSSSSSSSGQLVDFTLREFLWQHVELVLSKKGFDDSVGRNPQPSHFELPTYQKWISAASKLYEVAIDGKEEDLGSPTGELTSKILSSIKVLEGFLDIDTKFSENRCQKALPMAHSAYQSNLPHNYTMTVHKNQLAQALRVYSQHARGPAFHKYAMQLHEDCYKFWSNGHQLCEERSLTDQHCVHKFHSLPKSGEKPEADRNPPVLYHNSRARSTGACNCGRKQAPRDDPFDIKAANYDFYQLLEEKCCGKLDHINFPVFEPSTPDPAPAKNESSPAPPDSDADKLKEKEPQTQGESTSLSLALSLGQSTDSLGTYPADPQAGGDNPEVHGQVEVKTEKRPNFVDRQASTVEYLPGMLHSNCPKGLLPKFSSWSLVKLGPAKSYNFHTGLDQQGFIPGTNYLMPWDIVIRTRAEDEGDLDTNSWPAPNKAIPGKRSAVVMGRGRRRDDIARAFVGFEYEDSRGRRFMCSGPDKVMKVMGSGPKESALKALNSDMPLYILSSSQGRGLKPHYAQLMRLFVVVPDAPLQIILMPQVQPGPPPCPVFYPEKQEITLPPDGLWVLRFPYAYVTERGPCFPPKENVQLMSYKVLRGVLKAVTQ
UniProt Q8N6G5: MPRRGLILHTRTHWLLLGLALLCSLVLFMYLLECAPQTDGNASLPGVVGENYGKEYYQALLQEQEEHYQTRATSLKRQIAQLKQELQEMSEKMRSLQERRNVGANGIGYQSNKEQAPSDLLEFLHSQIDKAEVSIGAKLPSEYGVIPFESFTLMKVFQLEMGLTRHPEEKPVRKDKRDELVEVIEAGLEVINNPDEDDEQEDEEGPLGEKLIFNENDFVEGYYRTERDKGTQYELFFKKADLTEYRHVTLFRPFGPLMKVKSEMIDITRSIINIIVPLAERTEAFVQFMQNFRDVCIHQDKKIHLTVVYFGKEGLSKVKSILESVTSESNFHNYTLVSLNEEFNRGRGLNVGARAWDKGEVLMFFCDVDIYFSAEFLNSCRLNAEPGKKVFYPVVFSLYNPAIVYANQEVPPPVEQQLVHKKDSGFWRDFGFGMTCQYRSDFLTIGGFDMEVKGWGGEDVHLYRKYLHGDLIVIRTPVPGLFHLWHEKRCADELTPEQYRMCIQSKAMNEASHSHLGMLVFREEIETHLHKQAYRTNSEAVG
UniProt Q8N465: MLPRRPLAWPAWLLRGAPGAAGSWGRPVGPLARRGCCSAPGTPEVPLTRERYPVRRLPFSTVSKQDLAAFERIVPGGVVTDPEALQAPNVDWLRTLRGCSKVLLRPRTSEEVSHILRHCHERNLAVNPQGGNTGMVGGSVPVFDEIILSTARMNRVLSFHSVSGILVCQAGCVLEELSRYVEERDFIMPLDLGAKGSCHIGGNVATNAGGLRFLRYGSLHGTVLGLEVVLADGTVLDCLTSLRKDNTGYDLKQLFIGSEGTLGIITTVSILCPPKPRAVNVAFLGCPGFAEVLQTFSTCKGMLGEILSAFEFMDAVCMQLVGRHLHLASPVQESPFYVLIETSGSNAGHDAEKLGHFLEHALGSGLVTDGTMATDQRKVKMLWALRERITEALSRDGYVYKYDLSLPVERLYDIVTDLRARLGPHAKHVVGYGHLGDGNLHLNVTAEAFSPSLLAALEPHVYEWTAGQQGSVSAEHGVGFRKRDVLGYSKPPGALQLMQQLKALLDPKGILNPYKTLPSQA
UniProt Q8NBM8: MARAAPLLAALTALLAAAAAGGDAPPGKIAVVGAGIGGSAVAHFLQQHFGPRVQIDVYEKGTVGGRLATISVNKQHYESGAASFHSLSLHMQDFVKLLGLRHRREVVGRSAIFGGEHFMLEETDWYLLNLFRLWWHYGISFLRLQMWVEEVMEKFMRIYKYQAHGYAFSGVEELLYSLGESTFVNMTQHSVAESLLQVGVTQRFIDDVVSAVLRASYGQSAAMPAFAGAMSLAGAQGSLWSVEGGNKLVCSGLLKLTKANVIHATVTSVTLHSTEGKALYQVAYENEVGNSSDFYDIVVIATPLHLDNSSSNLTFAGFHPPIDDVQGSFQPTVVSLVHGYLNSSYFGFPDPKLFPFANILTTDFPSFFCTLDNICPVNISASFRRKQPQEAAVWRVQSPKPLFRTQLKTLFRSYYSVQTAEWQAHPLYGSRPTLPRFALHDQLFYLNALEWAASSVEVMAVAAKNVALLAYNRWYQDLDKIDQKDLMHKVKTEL
UniProt Q8NFA0: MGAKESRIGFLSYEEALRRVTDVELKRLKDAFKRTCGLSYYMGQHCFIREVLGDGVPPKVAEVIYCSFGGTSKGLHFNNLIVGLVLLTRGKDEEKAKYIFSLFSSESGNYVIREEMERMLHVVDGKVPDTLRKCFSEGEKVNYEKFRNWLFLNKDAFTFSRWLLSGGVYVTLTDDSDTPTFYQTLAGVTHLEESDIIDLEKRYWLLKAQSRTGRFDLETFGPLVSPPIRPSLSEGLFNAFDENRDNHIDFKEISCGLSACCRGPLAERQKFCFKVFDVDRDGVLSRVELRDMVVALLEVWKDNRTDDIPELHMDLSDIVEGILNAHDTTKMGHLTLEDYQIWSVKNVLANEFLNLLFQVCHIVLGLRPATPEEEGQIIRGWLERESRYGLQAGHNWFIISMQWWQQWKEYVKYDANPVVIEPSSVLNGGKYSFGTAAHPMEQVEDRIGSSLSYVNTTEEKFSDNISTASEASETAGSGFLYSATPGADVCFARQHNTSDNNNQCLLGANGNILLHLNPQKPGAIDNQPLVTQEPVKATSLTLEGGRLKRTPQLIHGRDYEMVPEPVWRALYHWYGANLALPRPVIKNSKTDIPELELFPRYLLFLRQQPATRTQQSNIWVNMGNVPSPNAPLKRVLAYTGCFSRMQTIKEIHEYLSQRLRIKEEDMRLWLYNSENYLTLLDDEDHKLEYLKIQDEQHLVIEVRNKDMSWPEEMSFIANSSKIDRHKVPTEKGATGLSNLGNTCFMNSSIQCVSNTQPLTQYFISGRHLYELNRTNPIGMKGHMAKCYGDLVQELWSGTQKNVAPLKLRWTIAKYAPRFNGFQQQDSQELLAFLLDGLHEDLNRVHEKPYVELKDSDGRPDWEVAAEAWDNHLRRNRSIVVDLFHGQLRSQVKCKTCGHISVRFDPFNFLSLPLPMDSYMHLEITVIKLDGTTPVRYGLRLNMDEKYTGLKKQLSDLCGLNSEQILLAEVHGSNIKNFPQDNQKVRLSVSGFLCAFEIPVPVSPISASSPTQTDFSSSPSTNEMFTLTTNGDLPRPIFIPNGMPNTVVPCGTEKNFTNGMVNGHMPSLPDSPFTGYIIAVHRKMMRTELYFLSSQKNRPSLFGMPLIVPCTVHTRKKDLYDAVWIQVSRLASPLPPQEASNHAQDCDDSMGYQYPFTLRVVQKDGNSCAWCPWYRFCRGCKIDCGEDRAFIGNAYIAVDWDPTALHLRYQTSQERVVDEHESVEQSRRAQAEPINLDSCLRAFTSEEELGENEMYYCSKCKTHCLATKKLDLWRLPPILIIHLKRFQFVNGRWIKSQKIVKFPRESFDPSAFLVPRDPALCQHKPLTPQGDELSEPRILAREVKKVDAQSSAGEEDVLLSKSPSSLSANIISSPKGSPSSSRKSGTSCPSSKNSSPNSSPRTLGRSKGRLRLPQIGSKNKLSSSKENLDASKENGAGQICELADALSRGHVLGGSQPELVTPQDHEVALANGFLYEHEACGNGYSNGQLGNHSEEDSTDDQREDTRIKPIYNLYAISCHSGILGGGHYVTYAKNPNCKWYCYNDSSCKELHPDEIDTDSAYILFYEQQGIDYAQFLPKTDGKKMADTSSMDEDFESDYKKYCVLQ
UniProt Q8N8E3: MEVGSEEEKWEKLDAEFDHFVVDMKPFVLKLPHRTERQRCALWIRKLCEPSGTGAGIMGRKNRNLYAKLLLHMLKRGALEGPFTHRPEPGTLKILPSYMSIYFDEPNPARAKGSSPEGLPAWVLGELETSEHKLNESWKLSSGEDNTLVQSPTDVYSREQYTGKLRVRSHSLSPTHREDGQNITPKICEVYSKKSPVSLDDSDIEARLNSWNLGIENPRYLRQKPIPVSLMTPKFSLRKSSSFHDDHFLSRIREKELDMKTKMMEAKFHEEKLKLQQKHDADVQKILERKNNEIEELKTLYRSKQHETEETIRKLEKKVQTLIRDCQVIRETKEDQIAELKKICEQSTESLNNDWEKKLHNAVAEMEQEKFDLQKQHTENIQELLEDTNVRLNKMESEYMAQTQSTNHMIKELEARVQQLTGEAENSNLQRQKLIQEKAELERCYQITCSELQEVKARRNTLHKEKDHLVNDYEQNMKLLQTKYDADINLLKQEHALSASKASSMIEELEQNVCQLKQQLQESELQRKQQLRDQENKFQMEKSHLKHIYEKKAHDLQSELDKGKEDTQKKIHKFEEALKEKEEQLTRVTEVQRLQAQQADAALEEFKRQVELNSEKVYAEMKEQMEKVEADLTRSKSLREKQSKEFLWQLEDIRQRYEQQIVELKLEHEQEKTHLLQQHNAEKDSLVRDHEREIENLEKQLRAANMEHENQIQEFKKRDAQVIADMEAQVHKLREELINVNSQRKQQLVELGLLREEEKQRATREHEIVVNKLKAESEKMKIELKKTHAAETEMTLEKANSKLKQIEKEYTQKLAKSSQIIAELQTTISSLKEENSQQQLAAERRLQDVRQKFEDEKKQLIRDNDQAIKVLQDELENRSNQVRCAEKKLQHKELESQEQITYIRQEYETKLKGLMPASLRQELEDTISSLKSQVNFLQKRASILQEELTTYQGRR
UniProt Q8NB37: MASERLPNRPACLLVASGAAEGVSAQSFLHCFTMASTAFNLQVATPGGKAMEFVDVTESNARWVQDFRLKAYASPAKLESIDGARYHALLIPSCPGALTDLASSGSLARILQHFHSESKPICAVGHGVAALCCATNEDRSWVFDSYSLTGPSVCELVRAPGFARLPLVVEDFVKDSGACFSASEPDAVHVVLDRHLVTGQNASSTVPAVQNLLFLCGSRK
UniProt Q8NEC7: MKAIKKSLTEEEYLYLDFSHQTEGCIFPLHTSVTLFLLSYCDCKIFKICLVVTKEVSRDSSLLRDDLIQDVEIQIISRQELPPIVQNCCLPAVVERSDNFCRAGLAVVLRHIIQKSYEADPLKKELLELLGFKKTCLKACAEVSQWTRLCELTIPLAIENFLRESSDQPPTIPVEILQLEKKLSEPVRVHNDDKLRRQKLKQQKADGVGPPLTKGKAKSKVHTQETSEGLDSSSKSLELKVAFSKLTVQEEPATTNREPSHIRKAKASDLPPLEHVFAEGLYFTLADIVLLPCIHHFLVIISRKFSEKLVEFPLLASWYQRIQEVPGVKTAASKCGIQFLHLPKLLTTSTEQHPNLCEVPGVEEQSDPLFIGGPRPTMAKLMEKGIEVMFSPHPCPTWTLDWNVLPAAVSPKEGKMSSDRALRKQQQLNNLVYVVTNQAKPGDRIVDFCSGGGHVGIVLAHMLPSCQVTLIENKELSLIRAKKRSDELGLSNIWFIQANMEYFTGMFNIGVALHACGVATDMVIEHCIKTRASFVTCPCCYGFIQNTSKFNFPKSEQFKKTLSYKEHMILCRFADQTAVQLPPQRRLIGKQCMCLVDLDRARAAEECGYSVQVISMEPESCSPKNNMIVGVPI
UniProt Q8N4J0: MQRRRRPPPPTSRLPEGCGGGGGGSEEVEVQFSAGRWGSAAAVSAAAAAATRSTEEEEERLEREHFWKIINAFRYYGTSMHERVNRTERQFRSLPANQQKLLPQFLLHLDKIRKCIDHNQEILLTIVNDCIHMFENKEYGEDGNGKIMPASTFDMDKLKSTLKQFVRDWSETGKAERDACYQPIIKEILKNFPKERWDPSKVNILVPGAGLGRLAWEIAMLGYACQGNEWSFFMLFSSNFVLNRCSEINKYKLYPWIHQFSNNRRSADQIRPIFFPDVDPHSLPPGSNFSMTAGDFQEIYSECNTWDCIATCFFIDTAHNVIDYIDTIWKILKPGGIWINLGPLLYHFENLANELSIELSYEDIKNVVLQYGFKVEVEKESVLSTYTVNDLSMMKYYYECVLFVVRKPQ
UniProt Q8N5W9: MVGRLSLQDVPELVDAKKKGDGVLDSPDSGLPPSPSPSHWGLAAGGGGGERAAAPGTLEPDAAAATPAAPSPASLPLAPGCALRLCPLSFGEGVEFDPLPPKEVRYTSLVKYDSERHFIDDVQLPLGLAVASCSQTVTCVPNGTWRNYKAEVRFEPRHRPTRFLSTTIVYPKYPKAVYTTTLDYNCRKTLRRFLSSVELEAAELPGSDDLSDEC

Compound: Nc1ncnc2c1ncn2[C@@H]1O[C@H](COP(=O)(O)OP(=O)(O)OP(=O)(O)O)[C@@H](O)[C@H]1O [adenosine triphosphate]
Experiment: NP40-soluble protein abundance relative to vehicle (solubility fold change) (ratio); higher = more soluble protein in presence of ATP
How it was run: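 In three independent experiments, Jurkat crude lysate made by Dounce homogenisation was treated for 10 min at room temperature and then 3 min at 37 °C with eight concentrations ranging from 0.1 to 10 mM. It was then solubilised with 0.8% NP40 plus benzonase for 60 min at 4 °C and ultracentrifuged. The supernatant was TMT-labelled for LC-MS/MS, and each value is the fold change against the detergent-processed vehicle for the same replicate, using vsn-normalised intensities.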

Row | Target | NP40-soluble protein abundance (concentration: 1mM) | NP40-soluble protein abundance (concentration: 2mM) | NP40-soluble protein abundance (concentration: 4mM) | NP40-soluble protein abundance (concentration: 6mM) | NP40-soluble protein abundance (concentration: 8mM) | NP40-soluble protein abundance (concentration: 10mM)
1 | LZTR1 (UniProt Q8N653) | 0.994 ± 0.076 | 0.8911 ± 0.0029 | 0.924 ± 0.069 | 0.861 ± 0.08 | 0.921 ± 0.07 | 0.857 ± 0.022
2 | GALNT12 (UniProt Q8IXK2) | 1.11 ± 0.084 | 1.05 ± 0.045 | 1.07 ± 0.074 | 1.02 ± 0.098 | 1.09 ± 0.054 | 1.04 ± 0.065
3 | MICALL1 (UniProt Q8N3F8) | 0.931 ± 0.034 | 0.958 ± 0.016 | 0.946 ± 0.029 | 0.9653 ± 0.0025 | 0.917 ± 0.015 | 0.925 ± 0.016
4 | UniProt Q8NBJ5 | 0.987 ± 0.06 | 0.957 ± 0.036 | 0.958 ± 0.035 | 0.943 ± 0.058 | 0.96 ± 0.039 | 0.943 ± 0.025
5 | PSD4 (UniProt Q8NDX1) | 1.07 ± 0.069 | 1.05 ± 0.074 | 1.04 ± 0.058 | 1.07 ± 0.042 | 1.03 ± 0.076 | 1.04 ± 0.058
6 | UniProt Q8NCW5 | 0.994 ± 0.08 | 0.996 ± 0.048 | 0.989 ± 0.037 | 0.954 ± 0.01 | 1 ± 0.016 | 0.915 ± 0.093
7 | UniProt Q8NDV7 and related entries | 1.09 ± 0.046 | 1.08 ± 0.07 | 1.11 ± 0.071 | 1.15 ± 0.19 | 1.22 ± 0.084 | 1.17 ± 0.064
8 | SRFBP1 (UniProt Q8NEF9) | 1.04 ± 0.053 | 1.03 ± 0.036 | 1.05 ± 0.048 | 1.08 ± 0.049 | 1.05 ± 0.012 | 1.06 ± 0.048
9 | UniProt Q8NFF5 and related entries | 0.947 ± 0.029 | 0.936 ± 0.046 | 0.921 ± 0.033 | 0.916 ± 0.05 | 0.927 ± 0.036 | 0.934 ± 0.022
10 | NKAP (UniProt Q8N5F7) | 1.02 ± 0.08 | 1.05 ± 0.061 | 1.07 ± 0.068 | 1.05 ± 0.066 | 1.1 ± 0.062 | 1.11 ± 0.088
11 | UniProt Q8ND04 and related entries | 1.01 ± 0.034 | 1.04 ± 0.078 | 1.05 ± 0.06 | 1.01 ± 0.039 | 1.04 ± 0.046 | 1.05 ± 0.048
12 | UniProt Q8N6G5 and related entries | 1.01 ± 0.084 | 0.924 ± 0.048 | 0.907 ± 0.057 | 0.922 ± 0.034 | 0.964 ± 0.091 | 0.876 ± 0.05
13 | D2HGDH (UniProt Q8N465) | 0.959 ± 0.023 | 1.03 ± 0.029 | 0.963 ± 0.038 | 0.983 ± 0.053 | 0.939 ± 0.026 | 0.969 ± 0.039
14 | SMYD4 (UniProt Q8IYR2) | 0.971 ± 0.042 | 1.02 ± 0.026 | 1.01 ± 0.039 | 1.05 ± 0.066 | 0.964 ± 0.011 | 0.957 ± 0.044
15 | INTS1 (UniProt Q8N201) | 1.06 ± 0.032 | 1.07 ± 0.043 | 1.131 ± 0.0082 | 1.08 ± 0.048 | 1.21 ± 0.071 | 1.21 ± 0.06
16 | PCYOX1L (UniProt Q8NBM8) | 0.95 ± 0.05 | 0.978 ± 0.076 | 0.972 ± 0.046 | 0.928 ± 0.078 | 0.926 ± 0.047 | 0.976 ± 0.07
17 | USP32 (UniProt Q8NFA0) | 1.02 ± 0.096 | 0.994 ± 0.11 | 0.953 ± 0.045 | 0.965 ± 0.12 | 0.96 ± 0.086 | 0.978 ± 0.11
18 | UniProt Q8N8E3 and related entries | 1.11 ± 0.051 | 1.09 ± 0.035 | 1.05 ± 0.021 | 1.13 ± 0.055 | 1.06 ± 0.046 | 1.06 ± 0.017
19 | UniProt Q8NEB9 | 1.02 ± 0.072 | 1.03 ± 0.067 | 1.02 ± 0.1 | 0.98 ± 0.073 | 1.03 ± 0.04 | 1.01 ± 0.036
20 | UniProt Q8N5G2 | 0.995 ± 0.076 | 1.07 ± 0.11 | 1.08 ± 0.12 | 1.13 ± 0.13 | 1.1 ± 0.14 | 1.15 ± 0.18
21 | UniProt Q8NB37 | 0.997 ± 0.14 | 0.965 ± 0.16 | 0.964 ± 0.078 | 0.971 ± 0.12 | 0.892 ± 0.1 | 0.927 ± 0.022
22 | GSTCD (UniProt Q8NEC7) | 1 ± 0.056 | 0.995 ± 0.077 | 1.1 ± 0.1 | 0.972 ± 0.075 | 0.995 ± 0.048 | 0.978 ± 0.015
23 | AGGF1 (UniProt Q8N302) | 1.07 ± 0.033 | 1.08 ± 0.08 | 1.09 ± 0.045 | 1.06 ± 0.061 | 1.08 ± 0.011 | 1.11 ± 0.1
24 | UniProt Q8N9B5 and related entries | 0.97 ± 0.045 | 1.05 ± 0.095 | 1.01 ± 0.055 | 1.02 ± 0.048 | 1.02 ± 0.046 | 0.998 ± 0.028
25 | KRI1 (UniProt Q8N9T8) | 1.04 ± 0.027 | 1.026 ± 0.0047 | 1.08 ± 0.015 | 1.19 ± 0.029 | 1.2 ± 0.052 | 1.28 ± 0.053
26 | UniProt Q8N4J0 | 1.03 ± 0.098 | 0.987 ± 0.071 | 0.972 ± 0.093 | 0.944 ± 0.096 | 0.994 ± 0.1 | 0.984 ± 0.041
27 | UniProt Q8NHU6 and related entries | 1.04 ± 0.039 | 1.02 ± 0.033 | 1.03 ± 0.027 | 1.02 ± 0.058 | 0.99 ± 0.018 | 0.996 ± 0.032
28 | RFLNB (UniProt Q8N5W9) | 0.954 ± 0.099 | 0.969 ± 0.076 | 0.991 ± 0.15 | 0.948 ± 0.098 | 0.985 ± 0.11 | 0.966 ± 0.033
29 | UniProt Q8NHH9 and related entries | 1.07 ± 0.055 | 1.03 ± 0.071 | 1.04 ± 0.069 | 1.04 ± 0.022 | 1.02 ± 0.027 | 0.988 ± 0.063
30 | UniProt Q8NB15-2 | 0.9972 ± 0.0052 | 1.08 ± 0.067 | 1.09 ± 0.021 | 1.06 ± 0.1 | 1.06 ± 0.067 | 1.04 ± 0.055

Fetched one by one from above (2):
Row | Target | NP40-soluble protein abundance (concentration: 1mM) | NP40-soluble protein abundance (concentration: 2mM) | NP40-soluble protein abundance (concentration: 4mM) | NP40-soluble protein abundance (concentration: 6mM) | NP40-soluble protein abundance (concentration: 8mM) | NP40-soluble protein abundance (concentration: 10mM)
22 | GSTCD (UniProt Q8NEC7) | 1 ± 0.056 | 0.995 ± 0.077 | 1.1 ± 0.1 | 0.972 ± 0.075 | 0.995 ± 0.048 | 0.978 ± 0.015
26 | UniProt Q8N4J0 | 1.03 ± 0.098 | 0.987 ± 0.071 | 0.972 ± 0.093 | 0.944 ± 0.096 | 0.994 ± 0.1 | 0.984 ± 0.041
